Test results taken from article PMC7822115 (Viruses, 2020).

Assays:
[1] = system: Vero cells; settings: African green monkey
[2] = in vitro; settings: African green monkey
[3] = in vitro; settings: human
[4] = system: A549/ACE2 cells

O=C(O)c1cn(C2CC2)c2cc(N3CCNCC3)c(F)cc2c1=O [Ciprofloxacin, ciprofloxacin]
Concentration at which cellular toxicity was observed [1]: 600 µM | CC50 [2]: > 600 µM | CC50 [3]: > 600 µM | Cellular viability / toxicity compared to the media control (in words) [4]: did not impact
